Source: publication PMC4564764, “Collagen Q and anti-MuSK autoantibody competitively suppress agrin/LRP4/MuSK signaling” (Scientific Reports, 2015)
No constants are given. Whether binding was seen depends on the method and setting. For some assays here: Binding seen in cells or lysates may run through a third protein. Some results given as binding are weak or reduced against the parent protein; the word gives no strength. Tags and fused reporters may be left off the sequences shown.

Sequences of proteins named here, by UniProt entry; tags and fusion partners are left off. Residues count along the entry.
UniProt Q9Y215, residues 23-455: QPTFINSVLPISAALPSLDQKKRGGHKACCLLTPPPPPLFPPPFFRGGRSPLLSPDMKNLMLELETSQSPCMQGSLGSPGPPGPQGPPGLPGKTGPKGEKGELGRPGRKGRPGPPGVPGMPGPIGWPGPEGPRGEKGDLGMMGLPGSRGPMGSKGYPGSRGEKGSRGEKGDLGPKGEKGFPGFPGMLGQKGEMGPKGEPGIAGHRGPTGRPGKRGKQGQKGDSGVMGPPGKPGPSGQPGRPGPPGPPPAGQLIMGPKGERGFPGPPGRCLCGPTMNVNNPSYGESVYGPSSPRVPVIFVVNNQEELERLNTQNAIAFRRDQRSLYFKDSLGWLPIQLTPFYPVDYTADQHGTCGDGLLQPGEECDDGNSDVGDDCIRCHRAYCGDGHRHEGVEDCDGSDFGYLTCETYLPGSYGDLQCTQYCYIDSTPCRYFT

Key:
[1] = molecular target: T1, purified recombinant ectodomain of human MuSK fused to myc (hMuSKect-myc), wild type (human) (UniProt O15146); assay: co-IP; HEK293 cotransfected with wild-type or domain-deleted phMUSKect-myc and pFLAG-COLQ; lysis in 50 mM HEPES pH 7.0, 150 mM NaCl, 0.5% NP-40; IP with anti-myc (9E10) and Dynabeads Protein G; blot with anti-FLAG-HRP
T1 sequence: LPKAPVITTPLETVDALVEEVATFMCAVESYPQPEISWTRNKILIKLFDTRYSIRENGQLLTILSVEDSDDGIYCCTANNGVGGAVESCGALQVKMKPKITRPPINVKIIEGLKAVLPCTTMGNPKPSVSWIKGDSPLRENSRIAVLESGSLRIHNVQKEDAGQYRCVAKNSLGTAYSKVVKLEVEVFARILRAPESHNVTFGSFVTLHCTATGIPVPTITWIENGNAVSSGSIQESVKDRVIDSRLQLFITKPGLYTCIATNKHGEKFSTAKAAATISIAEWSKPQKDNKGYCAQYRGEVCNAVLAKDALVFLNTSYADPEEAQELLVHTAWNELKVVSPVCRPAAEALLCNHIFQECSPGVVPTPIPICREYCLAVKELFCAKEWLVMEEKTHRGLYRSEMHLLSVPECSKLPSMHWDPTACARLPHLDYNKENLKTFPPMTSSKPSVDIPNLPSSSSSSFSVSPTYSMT

[2] = molecular target: T1, purified recombinant ectodomain of human MuSK fused to myc (hMuSKect-myc), wild type (human); assay: ELISA; in vitro plate-binding assay, competition: hMuSKect-myc coated; 0.12 Ellman units of AChE/ColQ or AChE/ColQ_ΔCTD complex overlaid at 4 °C for 3 h, wells washed; then hLRP4N-FLAG with agrin; anti-FLAG-HRP, normalised to no AChE/ColQ complex; both purified

binding [1]	binding [2]	Substance
binds	–	FLAG-ColQ (human collagen Q with FLAG inserted between codons 35 and 36) (from UniProt Q9Y215 23-455)
–	binds	purified recombinant human AChE/ColQ complex (wild type) (from UniProt Q9Y215 23-455; P22303 32-614)
